# Reference: paper PMC7862700
# Protein sequences, listed by entry. Tags and fused reporters are not part of them. Lines headed by an entry give the natural chain unless they say otherwise; changes in a name come on top.
# UniProt P32519: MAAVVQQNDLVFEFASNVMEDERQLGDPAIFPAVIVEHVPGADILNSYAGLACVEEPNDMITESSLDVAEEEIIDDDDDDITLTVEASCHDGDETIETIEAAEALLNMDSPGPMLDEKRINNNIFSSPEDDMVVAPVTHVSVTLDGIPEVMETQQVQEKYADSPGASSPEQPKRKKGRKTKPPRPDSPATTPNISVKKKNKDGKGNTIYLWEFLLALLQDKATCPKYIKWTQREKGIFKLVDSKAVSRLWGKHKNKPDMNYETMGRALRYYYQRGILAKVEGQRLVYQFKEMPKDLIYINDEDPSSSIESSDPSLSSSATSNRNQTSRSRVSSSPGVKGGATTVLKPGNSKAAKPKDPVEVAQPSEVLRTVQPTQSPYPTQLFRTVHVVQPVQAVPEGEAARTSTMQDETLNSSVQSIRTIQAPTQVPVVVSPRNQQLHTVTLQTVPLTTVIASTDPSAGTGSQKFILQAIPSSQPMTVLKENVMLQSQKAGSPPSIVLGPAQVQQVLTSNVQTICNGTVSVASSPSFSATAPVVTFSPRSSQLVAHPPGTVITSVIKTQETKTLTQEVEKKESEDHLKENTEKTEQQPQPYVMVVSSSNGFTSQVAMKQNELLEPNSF
# The entries are a selection whose mix differs from that of the whole data set. At the low end of the ranking the order means little.
# Target: ELF1 (UniProt P32519)
# Test: DAPPL (digital affinity profiling via proximity ligation, sequencing)
# Settings: 10 mM Tris-HCl pH 7.5, 50 mM NaCl, 1 mM DTT, 4% glycerol, room temperature, 30 min; GST-TFs on glutathione beads, 16-mer random dsDNA library, 0.1% …; high values mean tight binding; double strand, one strand shown; scale: fold enrichment (6-mer frequency, TF over GST control)
row,Sequence,binding signal
1,GCTTTT,1.09
2,ACTATC,1.12
3,GCCGGA,0.952
4,ATCGTT,0.971
5,CGCCGG,1.03
6,CACACC,1.02
7,CTTCGT,1.3
8,AACGGA,0.984
9,ACACTA,1.19
10,TATGAT,1.24
11,ACACTC,1.12
12,AAGAAG,1.05
13,ATACGA,1.14
14,TCAGTT,0.995
15,ACAGCC,1.11
16,ACCCGG,1.75
17,GTCCGG,0.853
18,ACGTCA,0.884
19,ATCGCA,1.08
20,TCCGTT,1.34

# 2 entries picked at random from those above:
row,Sequence,binding signal
14,TCAGTT,0.995
1,GCTTTT,1.09

# Continued:

row,Sequence,binding signal
1,CCTTAG,1.27
2,TTCACA,1.16
3,AACTTG,1.21
4,TGGATC,0.966
5,CCTTTT,1.52
6,CAACAC,1.13
7,ATAAGG,0.942
8,TCCCGG,2.12
9,TAAGTT,1.3
10,GATACA,0.996
11,CGGAAA,1.87
12,GGATAC,0.962
13,TATTGA,1.18
14,AGGATG,0.919
15,GCGTAT,0.97
16,CGGAAC,1.04
17,CCTCCA,1.37
18,GTCCTT,1.26
19,CAGCAT,0.985
20,AGTGCC,0.995
